Reference: article PMC10323252
Results are given in words; binding and its absence hold for the method and conditions named. Binding seen in cells or lysates may run through a third protein. A yes stands for co-enrichment or nearness to the bait. Other partners may have been found. For part of these data: Where a sequence is shown, tags or fusion partners need not be part of it.

Protein sequences, listed by entry. Tags and fused reporters are not part of them.
UniProt P62491: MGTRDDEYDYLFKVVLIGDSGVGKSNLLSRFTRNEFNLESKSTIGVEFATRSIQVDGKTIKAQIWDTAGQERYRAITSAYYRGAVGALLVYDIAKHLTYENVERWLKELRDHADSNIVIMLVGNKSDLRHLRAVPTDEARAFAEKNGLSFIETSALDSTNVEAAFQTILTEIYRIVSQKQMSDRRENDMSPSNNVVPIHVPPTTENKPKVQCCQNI
UniProt P20338: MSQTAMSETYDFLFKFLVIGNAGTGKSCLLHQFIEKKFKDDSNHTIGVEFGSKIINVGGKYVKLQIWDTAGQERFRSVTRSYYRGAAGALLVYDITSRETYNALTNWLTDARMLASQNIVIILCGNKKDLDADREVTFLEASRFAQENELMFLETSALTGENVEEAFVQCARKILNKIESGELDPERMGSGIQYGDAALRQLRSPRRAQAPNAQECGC

What was measured:
Test in all cases: proximity labelling; BioID: A2780 cells stably expressing mycBirA*-Rab baits (mycBirA* alone as control), 1 uM biotin for 16 h; lysis in 0.4% SDS, 500 mM NaCl buffer; streptavidin microspheres; LC-MS/MS with label-free quantification, four replicates; high-confidence list by SAINTexpress (BFDR<=0.05), longlist by >2-fold enrichment; biotin-modified peptides also scored
mycBirA*–Rab11a = mycBirA*–Rab11a (UniProt P62491)
mycBirA*–Rab25 = target: T1, mycBirA*–Rab25 (UniProt P57735)
T1 sequence: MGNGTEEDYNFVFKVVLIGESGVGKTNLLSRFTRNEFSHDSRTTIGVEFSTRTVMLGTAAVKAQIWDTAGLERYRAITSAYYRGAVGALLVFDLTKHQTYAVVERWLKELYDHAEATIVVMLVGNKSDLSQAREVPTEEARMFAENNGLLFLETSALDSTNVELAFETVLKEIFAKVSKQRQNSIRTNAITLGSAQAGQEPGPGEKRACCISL

mycBirA*–Rab4a = mycBirA*–Rab4a (UniProt P20338)

Measured: binding

B1: ARHGAP1 (protein, UniProt Q07960 1-439)
chain: MDPLSELQDDLTLDDTSEALNQLKLASIDEKNWPSDEMPDFPKSDDSKSSSPELVTHLKWDDPYYDIARHQIVEVAGDDKYGRKIIVFSACRMPPSHQLDHSKLLGYLKHTLDQYVESDYTLLYLHHGLTSDNKPSLSWLRDAYREFDRKYKKNIKALYIVHPTMFIKTLLILFKPLISFKFGQKIFYVNYLSELSEHVKLEQLGIPRQVLKYDDFLKSTQKSPATAPKPMPPRPPLPNQQFGVSLQHLQEKNPEQEPIPIVLRETVAYLQAHALTTEGIFRRSANTQVVREVQQKYNMGLPVDFDQYNELHLPAVILKTFLRELPEPLLTFDLYPHVVGFLNIDESQRVPATLQVLQTLPEENYQVLRFLTAFLVQISAHSDQNKMTNTNLAVVFGPNLLWAKDAAITLKAINPINTFTKFLLDHQGELFPSPDPSGL
binds: mycBirA*–Rab11a | mycBirA*–Rab25 | mycBirA*–Rab4a

B2: AKAP10 (protein, UniProt O43572 29-662)
chain: KVKGKEQEKTSDVKSIKASISVHSPQKSTKNHALLEAAGPSHVAINAISANMDSFSSSRTATLKKQPSHMEAAHFGDLGRSCLDYQTQETKSSLSKTLEQVLHDTIVLPYFIQFMELRRMEHLVKFWLEAESFHSTTWSRIRAHSLNTVKQSSLAEPVSPSKKHETTASFLTDSLDKRLEDSGSAQLFMTHSEGIDLNNRTNSTQNHLLLSQECDSAHSLRLEMARAGTHQVSMETQESSSTLTVASRNSPASPLKELSGKLMKSIEQDAVNTFTKYISPDAAKPIPITEAMRNDIIARICGEDGQVDPNCFVLAQSIVFSAMEQEHFSEFLRSHHFCKYQIEVLTSGTVYLADILFCESALFYFSEYMEKEDAVNILQFWLAADNFQSQLAAKKGQYDGQEAQNDAMILYDKYFSLQATHPLGFDDVVRLEIESNICREGGPLPNCFTTPLRQAWTTMEKVFLPGFLSSNLYYKYLNDLIHSVRGDEFLGGNVSLTAPGSVGPPDESHPGSSDSSASQSSVKKASIKILKNFDEAIIVDAASLDPESLYQRTYAGKMTFGRVSDLGQFIRESEPEPDVRKSKGSMFSQAMKKWVQGNTDEAQEELAWKIAKMIVSDIMQQAQYDQPLEKSTKL
binds: mycBirA*–Rab11a | mycBirA*–Rab25 | mycBirA*–Rab4a
